# Reference: patent US6187783A, “Phenanthridinium derivatives” (Nippon Kayaku Kabushiki Kaisha, priority 1996, dated 2001)
# At least one structure is not confirmed: it was looked up by name or label, or the drawing left a doubt.
# Test: Chemical reduction with sodium cyanoborohydride
# Type: physicochemical
# Settings: aqueous solution, room temperature
# Method: In addition, when an in vitro metabolic test using liver homogenate (S9) prepared from human liver was performed with reference to the method described in Arch. […] This product coincided with the reduced product formed by the chemical reduction described above.
# 2,3-(Methylenedioxy)-7-hydroxy-8-methoxy-5,6-propano-benzo[c]phenanthridinium chloride, which is one of the compounds of the present invention, was treated with sodium cyanoborohydride in an aqueous solution at room temperature.
# The compound of the present invention (0.1 mg/mL aqueous solution, 0.1 mL) was diluted with methanol (1.0 mL). An aqueous solution of sodium cyanoborohydride (4 mg/mL, 0.02 mL) was added to the solution. The mixture was allowed to stand at room temperature. The reaction was terminated by adding 1% aqueous phosphoric acid (1 mL) thereto. The residual amount of the compound was determined by high performance liquid chromatography. As a control, 2,3-(methylenedioxy)-5-methyl-7-hydroxy-8-methoxy-benzo[c]phenanthridiniumhydrogensulfate was similarly reacted.
structure (smiles),measurement,value
"COc1ccc2c(c1O)c1[n+](c3c4cc5c(cc4ccc23)OCO5)CCC1 [Compound No. A-4, 2,3-(methylenedioxy)-7-hydroxy-8-methoxy-5,6-propano-benzo[c]phenanthridinium chloride]",Disappearance on treatment with sodium cyanoborohydride,disappears obviously gradually
